Data reported in article PMC10767194 (The Journal of Biological Chemistry, 2023).
These are yes or no findings as the source states them, for the method shown. Some results given as binding are weak or reduced against the parent protein; the word gives no strength. One block for each molecule: values may come before it.

Amino acid sequences for entries named in this document (tags omitted). A change or cut given only in a name is not applied to a line headed by its entry. Chains listed by the source or under a name are the forms on record and can include a tag or linker. Residues count along the entry.
UniProt P11802: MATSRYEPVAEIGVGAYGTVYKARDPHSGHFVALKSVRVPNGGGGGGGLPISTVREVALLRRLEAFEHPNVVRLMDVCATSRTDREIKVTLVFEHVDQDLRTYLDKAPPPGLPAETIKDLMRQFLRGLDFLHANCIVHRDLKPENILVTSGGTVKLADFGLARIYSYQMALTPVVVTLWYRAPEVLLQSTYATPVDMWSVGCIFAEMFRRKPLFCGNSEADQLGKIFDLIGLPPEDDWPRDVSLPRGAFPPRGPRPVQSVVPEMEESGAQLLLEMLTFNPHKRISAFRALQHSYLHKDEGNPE
Cdk12 kinase domain (residues 714–1063), WT, not coexpressed with CAK1 (Q9NYV4, residues 714-1063): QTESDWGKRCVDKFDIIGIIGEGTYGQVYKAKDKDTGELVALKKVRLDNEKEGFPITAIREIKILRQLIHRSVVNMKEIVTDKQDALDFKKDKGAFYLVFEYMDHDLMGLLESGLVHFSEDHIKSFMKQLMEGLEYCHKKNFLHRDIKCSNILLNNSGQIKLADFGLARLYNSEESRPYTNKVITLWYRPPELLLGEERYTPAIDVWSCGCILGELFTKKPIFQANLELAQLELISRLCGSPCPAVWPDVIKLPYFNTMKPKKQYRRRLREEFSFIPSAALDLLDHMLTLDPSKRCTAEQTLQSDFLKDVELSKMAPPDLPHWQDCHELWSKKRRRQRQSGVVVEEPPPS
Cdk12 D859N kinase domain (residues 714–1063), kinase dead mutant (Q9NYV4, form named): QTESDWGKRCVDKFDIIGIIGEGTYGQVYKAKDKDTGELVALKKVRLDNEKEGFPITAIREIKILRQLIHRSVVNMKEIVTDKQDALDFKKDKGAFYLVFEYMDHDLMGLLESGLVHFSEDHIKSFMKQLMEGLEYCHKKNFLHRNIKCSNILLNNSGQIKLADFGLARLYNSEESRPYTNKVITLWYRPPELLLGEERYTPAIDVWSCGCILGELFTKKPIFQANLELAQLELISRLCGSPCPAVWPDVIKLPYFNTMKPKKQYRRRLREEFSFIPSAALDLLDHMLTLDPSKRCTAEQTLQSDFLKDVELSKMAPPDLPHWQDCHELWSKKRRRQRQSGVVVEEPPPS
UniProt Q14004, residues 694-1039: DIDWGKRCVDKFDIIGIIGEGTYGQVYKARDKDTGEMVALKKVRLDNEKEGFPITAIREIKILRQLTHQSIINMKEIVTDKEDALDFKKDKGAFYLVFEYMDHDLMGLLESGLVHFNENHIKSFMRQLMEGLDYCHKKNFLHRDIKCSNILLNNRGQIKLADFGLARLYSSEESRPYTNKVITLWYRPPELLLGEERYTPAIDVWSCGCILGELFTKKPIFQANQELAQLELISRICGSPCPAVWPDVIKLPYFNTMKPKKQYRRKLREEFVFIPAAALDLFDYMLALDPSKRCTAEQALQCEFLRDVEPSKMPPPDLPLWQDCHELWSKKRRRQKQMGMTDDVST
UniProt Q15131: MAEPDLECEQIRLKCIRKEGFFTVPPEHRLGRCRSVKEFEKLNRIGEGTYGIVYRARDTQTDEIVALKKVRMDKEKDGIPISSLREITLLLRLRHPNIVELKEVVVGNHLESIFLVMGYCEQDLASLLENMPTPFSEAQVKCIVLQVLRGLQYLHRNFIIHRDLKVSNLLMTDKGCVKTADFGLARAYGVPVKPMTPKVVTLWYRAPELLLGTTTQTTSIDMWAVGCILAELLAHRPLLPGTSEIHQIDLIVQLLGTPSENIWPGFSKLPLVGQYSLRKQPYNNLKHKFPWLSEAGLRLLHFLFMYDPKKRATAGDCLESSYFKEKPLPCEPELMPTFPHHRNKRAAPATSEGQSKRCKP
UniProt P30281: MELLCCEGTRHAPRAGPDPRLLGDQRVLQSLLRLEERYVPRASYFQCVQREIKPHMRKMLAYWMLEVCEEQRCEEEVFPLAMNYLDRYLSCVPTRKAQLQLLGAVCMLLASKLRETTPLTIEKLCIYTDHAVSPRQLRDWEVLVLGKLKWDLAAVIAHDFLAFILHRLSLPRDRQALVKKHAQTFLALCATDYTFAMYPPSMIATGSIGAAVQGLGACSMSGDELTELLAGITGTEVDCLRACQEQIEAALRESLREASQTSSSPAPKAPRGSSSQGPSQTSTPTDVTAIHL

Tests used:
[1] = molecular target: Cdk4, full-length, WT (residues 1–303) (human) (UniProt P11802); test: SEC; co-purification of Cdk4 and cyclin D3 coexpressed in Sf9: GST-affinity chromatography, TEV-mediated tag removal, SEC, as described (ref. 53)
[2] = molecular target: Cdk12 D859N kinase domain (residues 714–1063), kinase dead mutant (human) (UniProt Q9NYV4); test: SEC; co-purification of coexpressed kinase and CycK from Sf9: GSTrap, TEV digest, Superdex 200 in 20 mM Hepes pH 7.8, 400 mM NaCl, 1 mM TCEP, 5% glycerol; fractions with the complex monitored by SDS-PAGE
[3] = molecular target: Cdk13 kinase domain (residues 694–1039) (human) (UniProt Q14004); test: as above
[4] = molecular target: Cdk12 kinase domain (residues 714–1063), WT, not coexpressed with CAK1 (human) (UniProt Q9NYV4); test: as above
[5] = molecular target: Cdk10, full-length, WT (residues 1–360) (human) (UniProt Q15131); test: SEC; co-purification of Cdk10 and CycQ coexpressed in Sf9: affinity chromatography and gel filtration, as described (ref. 54)

binding [1]: binds
Molecule: cyclin D3, full-length, WT (residues 1–292) (from UniProt P30281 1-292)

binding [2]: binds
binding [3]: binds
binding [4]: binds
B1: cyclin K cyclin box domains (residues 1–267) (domain or fragment, human, UniProt O75909 1-267, looked up)
chain: MKENKENSSPSVTSANLDHTKPCWYWDKKDLAHTPSQLEGLDPATEARYRREGARFIFDVGTRLGLHYDTLATGIIYFHRFYMFHSFKQFPRYVTGACCLFLAGKVEETPKKCKDIIKTARSLLNDVQFGQFGDDPKEEVMVLERILLQTIKFDLQVEHPYQFLLKYAKQLKGDKNKIQKLVQMAWTFVNDSLCTTLSLQWEPEIIAVAVMYLAGRLCKFEIQEWTSKPMYRRWWEQFVQDVPVDVLEDICHQILDLYSQGKQQMPH
notes: cyclin box domains of human cyclin K, residues 1–267, UniProt O75909; synthetic codon-optimised gene; The final model of 8P81 holds residues 20 to 260 of CycK; also called CycK; not shown: GST, N-terminal, cleaved

binding [5]: binds
B2: cyclin Q, full-length, WT (residues 1–248) (protein, UniProt Q8N1B3 1-248)
chain: MEAPEGGGGGPAARGPEGQPAPEARVHFRVARFIMEAGVKLGMRSIPIATACTIYHKFFCETNLDAYDPYLIAMSSIYLAGKVEEQHLRTRDIINVSNRYFNPSGEPLELDSRFWELRDSIVQCELLMLRVLRFQVSFQHPHKYLLHYLVSLQNWLNRHSWQRTPVAVTAWALLRDSYHGALCLRFQAQHIAVAVLYLALQVYGVEVPAEVEAEKPWWQVFNDDLTKPIIDNIVSDLIQIYTMDTEIP
